# PubChem BioAssay AID686937 – Drosophila RNAi Screening Center – 2013
# Test: 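Genes in the fly needed for secretion of protein constitutively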 (primary screen)
# Cells: Drosophila S2 cells expressing secreted horseradish peroxidase
# Knock-down reagent: long dsRNA against Drosophila genes
# Duration: about 5.5 days (5 days dsRNA, then 12 h reporter induction)
# Treatment: reporter expression induced after 5 days of dsRNA, read 12 h later; inducer not stated
# Read-out: 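Chemiluminescent measurement of peroxidase in the medium 12 h after reporter induction, following 5 days of dsRNA, given as a z-score per plate; higher means more secretion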
# Scale: z-score: higher = more reporter secreted into medium
# The deposit covers about 23,000 reagents; shown is an unselected part of those that have a named target and a result. 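Reduced-secretion tags in replicate 1 do not always agree with the z-scores; no criterion for assigning the tags was given.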 The numbers tell different reagents against one gene apart. Not all columns of the deposit are shown. The record does not give: the amount of reagent.
"z-score, replicate 1","z-score, replicate 2","z-score, replicate 3","z-score, replicate 4",gene,reagent
0.11,0.28,,,CG18745 (GeneID 59141),1
-1.66,-1.02,,,bgm (GeneID 44117),1
0.33,0.52,,,CG11106 (GeneID 32062),1
0.17,0.2,,,Mpp6 (GeneID 35382),1
-0.89,-0.89,,,alpha-Man-Ia (GeneID 31957),1
-0.69,-0.47,,,alpha-Man-Ia (GeneID 31957),2
-0.37,-0.16,,,alpha-Man-Ia (GeneID 31957),3
0.31,0.58,,,alpha-Man-Ia (GeneID 31957),4
0.27,0.35,,,Sirt1 (GeneID 34708),1
0.32,0.61,,,CG9132 (GeneID 2768881),1
-0.15,-0.65,,,APC4 (GeneID 31835),1
0.48,0.53,,,Pex14 (GeneID 40294),1
0.37,0.37,,,CG43063 (GeneID 12797894),1
0.13,0.04,,,osa (GeneID 42130),1
-6.9,0.11,,,sut3 (GeneID 44268),1
0.29,0.5,,,CG2157 (GeneID 32018),1
0.2,0.18,,,meru (GeneID 39727),1
-1.08,-0.53,,,meru (GeneID 39727),2
0.22,0.31,,,meru (GeneID 39727),3
0.25,0.32,,,CG13114 (GeneID 34272),1
-0.12,-0.05,,,Obp50e (GeneID 36600),1
0.48,0.35,,,CG12402 (GeneID 41714),1
-0.22,-0.19,,,Set8 (GeneID 41743),1
0.07,0.28,,,CG13575 (GeneID 37883),1
-0.58,-0.73,,,CG13575 (GeneID 37883),2
-0.23,0.3,,,Octbeta2R (GeneID 41549),1
-0.33,0.13,,,Octbeta2R (GeneID 41549),2
0.07,0.08,,,Octbeta2R (GeneID 41549),3
0.41,0.4,,,CG9308 (GeneID 37507),1
0.42,0.3,,,Eig71Ek (GeneID 39712),1
-0.23,0.48,,,nwk (GeneID 39052),1
0.41,0.09,,,nwk (GeneID 39052),2
0.31,0.18,,,Trx2 (GeneID 34281),1
0.1,0.3,,,CG13516 (GeneID 3885599),1
0.35,-0.04,,,CG17764 (GeneID 31440),1
0.29,0.46,,,CG15332 (GeneID 31714),1
0.29,0.38,0.53,0.42,CG33337 (GeneID 2768678),1
0.22,0.15,,,l(2)efl (GeneID 37744),1
0.38,0.21,,,Spn42Dd (GeneID 49808),1
0.78,0.02,,,Spn42Dd (GeneID 49808),2
0.23,0.22,,,CG8197 (GeneID 35912),1
0.46,0.51,,,Nubp2 (GeneID 40282),1
0.52,0.56,,,CG5199 (GeneID 40265),1
-0.13,-0.13,,,CG15136 (GeneID 35033),1
0.14,0.52,,,moon (GeneID 32176),1
0.29,-1.48,,,ps (GeneID 44258),1
-0.26,0.03,,,ps (GeneID 44258),2
-2.9,-1.69,,,ps (GeneID 44258),3
-6.45,-5.76,,,ps (GeneID 44258),4
0.01,-0.18,,,Gr98b (GeneID 117327),1
0.06,0.22,,,kmg (GeneID 34706),1
-0.29,-0.56,,,Ndc80 (GeneID 32316),1
-2.48,0.16,,,Ndc80 (GeneID 32316),2
0.14,-0.05,,,GstE5 (GeneID 37110),1
0.54,0.42,,,EMRE (GeneID 37071),1
0.14,0.27,-0.21,-0.82,dmrt11E (GeneID 32291),1
0.56,0.53,,,CG34393 (GeneID 33534),1
0.26,0.11,,,CG34393 (GeneID 33534),2
0.38,0.36,,,CG8229 (GeneID 35898),1
0.3,0.52,,,Cys (GeneID 41767),1
0.25,-0.2,,,CG6813 (GeneID 41396),1
0,0.22,,,Fmo-2 (GeneID 35561),1
0.32,0.39,-0.55,-0.05,CG11586 (GeneID 38520),1
0.15,0.22,,,CG33140 (GeneID 35642),1
-0.74,0.34,,,Dop1R1 (GeneID 41726),1
0.56,0.48,,,Dop1R1 (GeneID 41726),2
0.65,0.46,,,Dop1R1 (GeneID 41726),3
0.73,0.57,,,Mst57Db (GeneID 43122),1
-0.3,-0.3,,,CG14324 (GeneID 42119),1
0.26,0.61,,,CG8138 (GeneID 41619),1
0.1,-0.01,,,CG31087 (GeneID 43062),1
0.24,0.33,,,gro (GeneID 43162),1
0.11,-0.22,,,CG33463 (GeneID 2768844),1
-2.65,-4.36,,,RpS13 (GeneID 34149),1
0.84,0.35,,,CG33288 (GeneID 2768968),1
-0.12,0.05,-0.83,-0.06,hkb (GeneID 40549),1
0.39,0.14,,,rdog (GeneID 43450),1
-7.69,0.19,,,ND-20 (GeneID 32565),1
0.24,0.26,,,ND-75 (GeneID 31762),1
0.04,0.22,,,AANATL6 (GeneID 37212),1
0.05,0.11,,,Ir40a (GeneID 35449),1
-6.82,0.14,,,Ir40a (GeneID 35449),2

7 successive entries from above, quoted:
"z-score, replicate 1","z-score, replicate 2","z-score, replicate 3","z-score, replicate 4",gene,reagent
0.11,0.28,,,CG18745 (GeneID 59141),1
-1.66,-1.02,,,bgm (GeneID 44117),1
0.33,0.52,,,CG11106 (GeneID 32062),1
0.17,0.2,,,Mpp6 (GeneID 35382),1
-0.89,-0.89,,,alpha-Man-Ia (GeneID 31957),1
-0.69,-0.47,,,alpha-Man-Ia (GeneID 31957),2
-0.37,-0.16,,,alpha-Man-Ia (GeneID 31957),3
